The values that follow come from paper PMC4918949.

Sequences of proteins named here, by UniProt entry; tags and fusion partners are left off.
UniProt Q05397: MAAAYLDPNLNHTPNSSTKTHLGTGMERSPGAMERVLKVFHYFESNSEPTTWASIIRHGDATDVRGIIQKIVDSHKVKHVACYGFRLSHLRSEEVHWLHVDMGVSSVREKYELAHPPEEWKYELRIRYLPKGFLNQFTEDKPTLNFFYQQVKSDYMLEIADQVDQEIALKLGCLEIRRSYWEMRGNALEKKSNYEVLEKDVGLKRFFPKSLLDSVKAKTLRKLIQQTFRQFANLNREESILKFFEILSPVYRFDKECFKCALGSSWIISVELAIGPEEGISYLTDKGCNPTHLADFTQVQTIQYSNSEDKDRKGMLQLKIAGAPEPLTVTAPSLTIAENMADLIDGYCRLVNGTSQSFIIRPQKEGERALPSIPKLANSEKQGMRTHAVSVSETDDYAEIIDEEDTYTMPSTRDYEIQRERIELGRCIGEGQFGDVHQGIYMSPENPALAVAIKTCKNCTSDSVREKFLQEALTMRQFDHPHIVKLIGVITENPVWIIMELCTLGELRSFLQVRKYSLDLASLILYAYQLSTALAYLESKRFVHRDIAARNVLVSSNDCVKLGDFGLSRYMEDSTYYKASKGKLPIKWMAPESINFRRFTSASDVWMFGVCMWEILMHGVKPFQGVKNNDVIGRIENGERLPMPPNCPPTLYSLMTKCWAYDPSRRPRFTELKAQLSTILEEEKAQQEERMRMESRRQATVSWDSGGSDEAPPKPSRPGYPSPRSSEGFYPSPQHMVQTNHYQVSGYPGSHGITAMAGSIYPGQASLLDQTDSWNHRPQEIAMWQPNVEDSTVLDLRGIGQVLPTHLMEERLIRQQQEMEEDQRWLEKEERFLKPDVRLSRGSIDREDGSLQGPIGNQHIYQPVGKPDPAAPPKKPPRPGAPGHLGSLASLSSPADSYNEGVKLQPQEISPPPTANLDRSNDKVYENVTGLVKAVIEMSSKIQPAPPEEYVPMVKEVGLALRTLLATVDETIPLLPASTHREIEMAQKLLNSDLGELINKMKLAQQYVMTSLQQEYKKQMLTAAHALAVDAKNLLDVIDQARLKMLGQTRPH
UniProt P17931: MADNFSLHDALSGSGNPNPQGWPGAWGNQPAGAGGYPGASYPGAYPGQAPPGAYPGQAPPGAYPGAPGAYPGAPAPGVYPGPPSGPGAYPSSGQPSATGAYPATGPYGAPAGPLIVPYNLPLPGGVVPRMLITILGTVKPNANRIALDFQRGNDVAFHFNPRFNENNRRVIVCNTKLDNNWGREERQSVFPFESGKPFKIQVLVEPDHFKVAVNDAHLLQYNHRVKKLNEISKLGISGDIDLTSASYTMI

The target of this test is MUC16 (human (endogenous in colo-357)) (UniProt Q8WXI7). Nature of the test: co-IP; endogenous proteins; 500 ug colo-357 lysate with 3 ug antibody or IgG overnight at 4°C, Protein A/G-Sepharose beads 2 h; IP buffer 50 mM Tris-HCl pH 7.4, 150 mM NaCl, 5 mM EDTA, 0.5% NP-40; immunoblot.

No constants are given. Whether binding was seen depends on the method and setting. Binding seen in cells or lysates may run through a third protein. Some entries that bind do so weakly or less than the wild type.

As for FAK (from UniProt Q05397 1-1052), the binding entry is on record as “binds”.

Take galectin-3 (from UniProt P17931 1-250): the binding entry is on record as “binds”.
